104 sequences from PubChem BioAssay AID1347423 (Functional Genomics Laboratory (NCATS/FGL), 2020) can be followed below.

Screen size: about 52,000 sequences; about 210 (0.4%) were called active.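 The calls were made as follows: active = gene whose silencing raises cell survival under the drug, median off-target-corrected z-score across its silencing RNAs 2 or more; inactive = the rest.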 The list shows a part of the results.

This experiment can be described thus: Resistance to Poly (ADP-Ribose) Polymerase inhibitor: Gene Identification via Genome-wide siRNA Screen. The conditions noted are these: mouse BRCA2 R2336H ES cells, olaparib, CellTiter-Glo viability; active compounds read high. In short, it runs like this: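 Genome-wide siRNA screen (3 siRNAs/gene, 20 nM) in mouse ES cells carrying hypomorphic BRCA2 R2336H; olaparib 500 nM added 48 h post-transfection, CellTiter-Glo viability 72 h later. Normalized to plate-median negative control; MAD z-scores, gene median, seed-adjusted.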
A general note: In ATP-based viability assays light output follows the ATP content of the culture.
Consider CCCGGAUGAGGAAUUCAUGTT against Pdlim7, for which the z-score is inactive: -0.777. Turning to AACAUGUCCAACCUAGGCATT against Leftb, the z-score is inactive: -0.266. For the sequence GGAGAUUGGGAUCAAAGCCTT against Mthfd1, the z-score was inactive: -0.247. In the case of GGAUGGUUAUCAGGAAAAUTT against Scel it was inactive: 0.175; in that of GGCUUAUGUCCCAAAGCUATT against Nexn, inactive: 1.35. In the case of GGAUUUGAGUACAAGAAACTT against Tada2l, the z-score is inactive: 1.78.

In the case of “GGAAAUUUAGAGUGGUUCGTT against 2410187C16Rik”, the z-score was inactive: -0.609. In the case of GGACUUAUUAUGUGAGUGUTT against Ncbp2 it was inactive: 1.9; in that of CCCUAAGGAUGGUAUAUUUTT against Hr6bn, inactive: -1.45. With “GGACGAAUUCUGAUGUCUATT against 1110060M21Rik”, the z-score is inactive: -0.805.

As for GGUUUGUUUAGCUUGAAACTT against Ccr1, the z-score is inactive: 1.01. In the case of GGAACCCAAGUAGCCUUGUTT against Serf2 it was inactive: -0.582. In the case of GGGCUCUUAUAUAAUAGUUTT against Slc36a2 it was inactive: -1.01. Regarding GGUUCAGAAUCAAUACGAGTT against Krt2-17, the z-score was inactive: -0.534. In the case of “GGACAUGUUCUCAUUUACATT against D030014N22Rik” it was inactive: 0.196; in that of CGAGCUAGAUGACUUACUATT against Pkp4, inactive: 0.132.

As to GGACACACUACCGAACAUUTT against Gral, the z-score was inactive: -3.31. The same measure for GGACAGCUCUCAGAAUUCUTT against Ctse: inactive: 2.28. With GGGCCAAGAAAACCUACACTT against Cyp11b2, the z-score was inactive: -1.14. In the case of CGUCACCUACCAAGGAGAGTT against Enpp7 it was inactive: 0.937. For the sequence GGAGACCUGGCAAAUGUAATT against Dctn5, the z-score is inactive: 0.918. The same measure for GGAAAAGUCCUGUAAAAUUTT against Dmrta1: inactive: 0.431; for CUUCAAUACACGAGUUGUCTT against Olfr1126: inactive: -0.1. In the case of CGGAAAGUCCGGUUUCGAATT against AY616753 it was inactive: 0.249; in that of “CCCUAUUUGUCAACGAUUATT against 6430402H13Rik”, inactive: -0.521.

Take GCCUGUGAACCUGUAUUGUTT against Unc5c: the z-score was inactive: -0.71. The same measure for GCACCUGUUUGAGAUUACGTT against Arhgap22: inactive: 0.841; for GGUCUGUUUCUGAACUCCUTT against Hace1: inactive: 1.69.

On to “GCCACUCUUAGUGCUAACUTT against 4930521E07Rik”, for which the z-score is inactive: -2.01.

On to CCAUGCUUAGCUCAAUAGUTT against Pla2g3, for which the z-score was inactive: -0.822. The same measure for GGAGAGGAGACACAUCAGUTT against Gnpat: inactive: 0.171. In the case of “GGAUACUUUGAGAACUACUTT against 1110002B05Rik” it was inactive: -0.271; in that of “CCUCUUGAGUCGAGAUAUGTT against D430033N04Rik”, inactive: 0.0348; in that of GGGCCAAAUAUCAUAAACUTT against Strn4, inactive: 0.161.

In the case of “GGAAGGAAGAGAAAAACAATT against D11Ertd730e”, the z-score was inactive: -1.34. In the case of “GGCUAAUACAUAAAGUAGUTT against 4930515G01Rik” it was inactive: -0.125. In the case of “CGAAUAUGGUAUUCACUCATT against 9530098N22Rik” it was inactive: 0.473. With CGUGAACAGGUGGUUGGACTT against Hspa14, the z-score is inactive: -0.293. The same measure for “GCUAAAUUCAGCUGAGGCUTT against 4932416A15”: inactive: -0.804; for GGAUGGAAUGCAGAAACGATT against Pcp2: inactive: -0.704; for GCCCUGGCAUGCUAACAAATT against Prpf3: inactive: -1.46. In the case of GCCCGAGGUCAUCCUUUUATT against Cbx4, the z-score is inactive: 0.496. The same measure for “GGAAAAACAACCAGAUUGATT against 2810439F02Rik”: inactive: -0.0652; for CCCAAAGCCCUUUUAAACUTT against Hmbs: inactive: 1.08; for GCCUAAACUACCCUUAUAGTT against Ocln: inactive: -0.892. On to “GCCAAAAUAAUCCUUGGGATT against 1600015I10Rik”, for which the z-score is inactive: -0.983.

For GCGGUUCACUAUCUCCCUATT against Khsrp, the z-score was inactive: -1.63. In the case of GGAGAUCGACCACUUCUUCTT against Olfr1395 it was inactive: 0.6; in that of GGAGAAUCAGGGUAGCACATT against D18Wsu98e, inactive: 1.34. The same measure for GGUACAAAAGAAAACUGCUTT against Slbp: inactive: -0.455; for CCCUAACCUCAUUUCAUGUTT against V1rd1: inactive: -0.398. On to GGCCGUGUGUUUCUGUAACTT against Matk, for which the z-score is inactive: -0.417. As for GCAUUCAAAAUAGCUCUAUTT against Calb1, the z-score is inactive: 0.738. Take GCCUAUUCGAAUUUGGGAATT against Ogt: the z-score was inactive: -1.86.

On to “UGCUGUUAUCUGCUUACAGTT against 1110002E23Rik”, for which the z-score is inactive: 1.26. In the case of GGGCACUGAGUCUCCAAAATT against Rhbdl6 it was inactive: -1.39; in that of GCAUGUUUAGAACUCGCUCTT against Zfp87, inactive: 1.4; in that of GGGAGAGAUGUGGAAAUCUTT against Rac2, inactive: 1.43. In the case of GCAAGUGGUAAUGGUGACCTT against Tex15 it was inactive: -0.249.

Turning to “GGACCCAAGAAGAUGACGUTT against 0610010K14Rik”, the z-score is inactive: 1.44. As to GGUGGGCACACUUAGGUUUTT against BC030183, the z-score was inactive: -0.339. In the case of GGACAUUAGGAUCAGAACCTT against MGC73851 it was inactive: -1.39. In the case of GGGAUUGUAACAGCAUCCCTT against Epha6 it was inactive: 0.0863; in that of GGUUUGUAAAGGUUAUGACTT against Nell2, inactive: 0.267. In the case of CGAAGAGAUCAGUAAUAUGTT against Kif21a, the z-score is inactive: -0.489.

On to GGCUAAAGGCCUUCUUUUUTT against D10Ucla1, for which the z-score is inactive: 0.394.

Consider CGAGUGAGUGACGGCUACATT against Sema3e, for which the z-score was inactive: -0.942. With GCAGCUCUGCGGAAGCUUUTT against Olfr1350, the z-score is inactive: 1.34. The same measure for GCUUUUACAAGACCUGUUCTT against Pde2a: active: 1.02. In the case of GGAGAGAAAAAGGACUCAGTT against Kcnd2 it was inactive: -2.21. Turning to CGUGGUGAACGAGAUUGAUTT against Kcnab1, the z-score is inactive: 0.257. Consider GAGUGUCUUGAACACAGCCTT against Olfr635, for which the z-score is inactive: -0.396. Take GGUCAAGUCAAGAGUGAGATT against LOC434439: the z-score is inactive: 0.0853. The same measure for “GGUAUAUCGCCUAAUCACUTT against 5430439G14Rik”: inactive: 0.398.

For the sequence GGAGCUAGCAAGUAAAACUTT against Lbx2h, the z-score is inactive: 0.447. The same measure for GCAACUGAGAGAUGUCAUCTT against AI595338: inactive: 0.706; for “GGUACUGUUUGCAUUUAUUTT against C730042F17Rik”: inactive: 0.404. The same measure for GCUCCUAGAUUGCACCUACTT against Sez6l2: inactive: 0.158.

For GGUAUCGAAGAACUGGAAATT against Spg4, the z-score is inactive: 0.837.

For GCAAAAAUUAUGCAGAGCATT against Olfr1443, the z-score is inactive: 2.55. In the case of GGAUGGAGUGCCCUCAAGUTT against Pdk2, the z-score is inactive: -1.25.

In the case of GCUUUGUUUAUUUAGCCAGTT against Olfr154, the z-score was inactive: -0.0717.

Consider GGCGGAGUUUUUAAUACUCTT against Upb1, for which the z-score is inactive: -0.0292. As to GGAAUGAUCAUUCUAAUCCTT against Olfr1497, the z-score was inactive: 1.62.

GGAACGUGUUCAAAAGAGUTT against Sos1: the z-score was inactive: 0.513.

“GGAGUCAAAUGAUUAUGUCTT against E430019B13Rik”: the z-score is inactive: 2.22.

With GGUUUUGGAAAAUUUGCUATT against Hal, the z-score is inactive: 0.733. The same measure for GGUAGAAAAUUGUCUUUUCTT against Zcchc7: inactive: 0.601; for CGGGACUUUAGAUUAUGAATT against Pcdha11: inactive: -0.36. The same measure for “GCUCUGCUGUGUUAUAUGGTT against C330011M18Rik”: inactive: -0.729; for GCAGUUACAAGACUCCUUGTT against Catna3: inactive: 0.0922; for CGUGGUGCAGAAUUUUUAUTT against Cldn14: inactive: 0.758. For the sequence GGAAAAGGAGGAGGAAGGCTT against Lpin1, the z-score was inactive: -0.309. In the case of GGAGCAUGAGGACAUCAGATT against Tnp1 it was inactive: -2.53; in that of CGGGAAUCUAAAUAUGGUGTT against Oat, inactive: 1.35. On to GCCGAGUUGAAGUGAAGAATT against Pold2, for which the z-score was inactive: -2.03. GGUGGAGCUCAGUAUUCUGTT against Vmp: the z-score is inactive: 0.138. The same measure for GCACUAUAAUUCUCAUUACTT against Omd: inactive: 0.805; for GGAUAUUUACCAUCAGUGATT against Prlpe: inactive: -0.679; for “GCACAUUUAUCCCGGUGUATT against 0610039C21Rik”: inactive: -0.0939. As to CGAUGACUGUAAAAAGUCUTT against Plcb1, the z-score was inactive: 0.464. In the case of GGCAGAAUGUUGUAAAUGATT against Man2b1 it was inactive: -1.45; in that of CCAUCUGAGAACAUCAUUGTT against Hr6bn, inactive: 1.42.

On to “GGUUUGACAAGUUCUUUUGTT against B930041G04”, for which the z-score is inactive: -0.11.
